Test results reported in US20250388673A1.

B1: HFB6-4hz16-hG1 (antibody, human IgG1, V domains shown)
VH: EVQLVESGGGLVQPGGSLKLSCATSGFNIKDTYIHWVRQASGKGLEWIGRNDPANGNTKYAASFKGRATISADDSKNTAYLQLNSLKTEDTAVYYCASYEGYYERFGYWGQGTLVTVSS
VL: EIVLTQSPGTLSLSPGERATLSCRSSQSLLDRDGKTYLNWLQQKPGQAPRRLIYLVSKLDSGIPDRFSGSGSGTDFTLTISRLEPEDFAVYYCWQDTHFPYTFGQGTKLEIK
B2: HFB6-4hz18-hG1 (antibody, human IgG1, V domains shown)
VH: EVQLVQSGAEVKKPGESLKISCKTSGFNIKDTYIHWVRQMPGKGLEWIGRNDPANGNTKYSPSFQGQVTISADKSISTAYLQLSSLKASDTAMYYCASYEGYYERFGYWGQGTLVTVSS
VL: B1 VL
B3: HFB6-4hz17-hG1 (antibody, human IgG1, V domains shown)
VH: QVQLQESGPGLVKPSGTLSLTCAVSGFNIKDTYIHWVRQPPGKGLEWIGRNDPANGNTKYNPSFKSRATISADKSKNQASLKLSSVTAADTAVYYCASYEGYYERFGYWGQGTLVTVSS
VL: B1 VL
B4: HFB6-4hz2-hG1 (antibody, human IgG1, V domains shown)
VH: QVQLVQSGAEVKKPGASVKVSCKTSGFNIKDTYIHWVRQAPGQGLEWIGRNDPANGNTKYAQKFQGRVTMTADTSTSTVYMELSSLRSEDTAVYYCASYEGYYERFGYWGQGTLVTVSS
VL: DIQMTQSPSSLSASVGDRVTITCRSSQSLLDRDGKSYLNWLQQKPGKAPKRLIYLVSKLDSGVPSRFSGSGSGTDFTLTISSLQPEDFATYYCWQDTHFPYTFGQGTKLEIK
B5: HFB6-4hz3-hG1 (antibody, human IgG1, V domains shown)
VH: EVQLVESGGGLVQPGRSLRLSCTTSGFNIKDTYIHWFRQAPGKGLEWVGRNDPANGNTKYTASFKGRATISADGSKSIAYLQMNSLKTEDTAVYYCASYEGYYERFGYWGQGTLVTVSS
VL: B4 VL
B6: HFB6-4hz4-hG1 (antibody, human IgG1, V domains shown)
VH: B1 VH
VL: B4 VL
B7: HFB6-4hz6-hG1 (antibody, human IgG1, V domains shown)
VH: B2 VH
VL: B4 VL
B8: HFB6-4hz5-hG1 (antibody, human IgG1, V domains shown)
VH: B3 VH
VL: B4 VL
B9: HFB6-4hz13-hG1 (antibody, human IgG1, V domains shown)
VH: B4 VH with A16S, V68A, M70I, T74E, V79A
VL: B1 VL
B10: HFB6-4hz8-hG1 (antibody, human IgG1, V domains shown)
VH: B4 VH
VL: DVVMTQSPLSLPVTLGQPASISCRSSQSLLDRDGKTYLNWLQQRPGQSPRRLIYLVSKRDSGVPDRFSGSGSGTDFTLKISRVEAEDVGVYYCWQDTHFPYTFGQGTKLEIK
B11: HFB6-4hz19-hG1 (antibody, human IgG1, V domains shown)
VH: B4 VH with A16S, V68A, M70I, T74E, V79A
VL: DIVMTQSPDSLAVSLGERATINCKSSQSLLDRDGKTYLNWLQQKPGQSPKRLIYLVSKLDSGVPDRFSGSGSGTDFTLTISSLQAEDLAVYYCWQDTHFPYTFGQGTKLEIK
B12: HFB6-4hz14-hG1 (antibody, human IgG1, V domains shown)
VH: B4 VH
VL: B1 VL
B13: HFB6-4hz7-hG1 (antibody, human IgG1, V domains shown)
VH: B4 VH with A16S, V68A, M70I, T74E, V79A
VL: B10 VL
B14: HFB6-4hz20-hG1 (antibody, human IgG1, V domains shown)
VH: B4 VH
VL: B11 VL
B15: HFB6-4hz9-hG1 (antibody, human IgG1, V domains shown)
VH: B5 VH
VL: B10 VL
B16: HFB6-4hz11-hG1 (antibody, human IgG1, V domains shown)
VH: B3 VH
VL: B10 VL
B17: HFB6-4hz10-hG1 (antibody, human IgG1, V domains shown)
VH: B1 VH
VL: B10 VL
B18: HFB6-4hz12-hG1 (antibody, human IgG1, V domains shown)
VH: B2 VH
VL: B10 VL
B19: HFB6-4hz15-hG1 (antibody, human IgG1, V domains shown)
VH: B5 VH
VL: B1 VL

These binders were tested against cynomolgus BTLA (cynomolgus monkey) (assay: flow cytometry, Expi293 cells overexpressing cynomolgus BTLA).

binding, binds:
B1
B2
B3
B4
B5
B6
B7
B8
B9
B10
B11
B12
B13
B14
B15
B16
B17
B18
B19

Where a chain is given by its changes, count along the chain named. No constants are given. Whether binding was seen depends on the method and setting. Binding can be weak; no strength is given.
